These are yes or no findings as the source states them, for the method shown. Binding seen in cells or lysates may run through a third protein. Here binding means that the protein was enriched with, or labelled near, the bait; the list need not be complete.
Biological target: PB2-TAP fusion protein of influenza A/WSN/33 (WSN, H1N1) virus (influenza A/WSN/33 (WSN, H1N1) virus) (UniProt P03427)
Test: affinity purification with mass spectrometry

Protein sequences, listed by entry. Tags and fused reporters are not part of them.
UniProt P03427: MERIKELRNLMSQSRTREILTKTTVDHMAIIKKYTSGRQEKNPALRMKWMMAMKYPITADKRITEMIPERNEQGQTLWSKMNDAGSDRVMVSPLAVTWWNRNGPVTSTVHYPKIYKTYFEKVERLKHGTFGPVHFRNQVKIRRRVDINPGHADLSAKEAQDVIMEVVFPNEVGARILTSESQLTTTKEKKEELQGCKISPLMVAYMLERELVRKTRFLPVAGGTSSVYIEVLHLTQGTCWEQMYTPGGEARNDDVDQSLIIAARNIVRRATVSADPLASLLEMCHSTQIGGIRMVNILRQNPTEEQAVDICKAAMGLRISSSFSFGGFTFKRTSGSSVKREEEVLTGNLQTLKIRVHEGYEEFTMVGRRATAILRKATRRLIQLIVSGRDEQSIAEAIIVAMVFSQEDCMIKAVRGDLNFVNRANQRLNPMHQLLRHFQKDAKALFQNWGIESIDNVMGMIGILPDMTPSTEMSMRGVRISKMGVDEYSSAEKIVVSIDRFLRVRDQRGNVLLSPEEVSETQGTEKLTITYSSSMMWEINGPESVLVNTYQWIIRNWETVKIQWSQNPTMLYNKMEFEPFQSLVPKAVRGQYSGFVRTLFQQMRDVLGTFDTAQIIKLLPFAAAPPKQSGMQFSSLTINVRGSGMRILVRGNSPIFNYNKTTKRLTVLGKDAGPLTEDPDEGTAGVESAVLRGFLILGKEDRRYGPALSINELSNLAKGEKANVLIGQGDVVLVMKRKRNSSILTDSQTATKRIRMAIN

Binder	binding
DARS (protein, UniProt P14868 1-501) MPSASASRKSQEKPREIMDAAEDYAKERYGISSMIQSQEKPDRVLVRVRDLTIQKADEVVWVRARVHTSRAKGKQCFLVLRQQQFNVQALVAVGDHASKQMVKFAANINKESIVDVEGVVRKVNQKIGSCTQQDVELHVQKIYVISLAEPRLPLQLDDAVRPEAEGEEEGRATVNQDTRLDNRVIDLRTSTSQAVFRLQSGICHLFRETLINKGFVEIQTPKIISAASEGGANVFTVSYFKNNAYLAQSPQLYKQMCICADFEKVFSIGPVFRAEDSNTHRHLTEFVGLDIEMAFNYHYHEVMEEIADTMVQIFKGLQERFQTEIQTVNKQFPCEPFKFLEPTLRLEYCEALAMLREAGVEMGDEDDLSTPNEKLLGHLVKEKYDTDFYILDKYPLAVRPFYTMPDPRNPKQSNSYDMFMRGEEILSGAQRIHDPQLLTERALHHGIDLEKIKAYIDSFRFGAPPHAGGGIGLERVTMLFLGLHNVRQTSMFPRDPKRLTP	binds
Heterogeneous nuclear ribonucleoprotein M (hnRNPM) (protein, UniProt P52272 1-730) MAAGVEAAAEVAATEIKMEEESGAPGVPSGNGAPGPKGEGERPAQNEKRKEKNIKRGGNRFEPYANPTKRYRAFITNIPFDVKWQSLKDLVKEKVGEVTYVELLMDAEGKSRGCAVVEFKMEESMKKAAEVLNKHSLSGRPLKVKEDPDGEHARRAMQKVMATTGGMGMGPGGPGMITIPPSILNNPNIPNEIIHALQAGRLGSTVFVANLDYKVGWKKLKEVFSMAGVVVRADILEDKDGKSRGIGTVTFEQSIEAVQAISMFNGQLLFDRPMHVKMDERALPKGDFFPPERPQQLPHGLGGIGMGLGPGGQPIDANHLNKGIGMGNIGPAGMGMEGIGFGINKMGGMEGPFGGGMENMGRFGSGMNMGRINEILSNALKRGEIIAKQGGGGGGGSVPGIERMGPGIDRLGGAGMERMGAGLGHGMDRVGSEIERMGLVMDRMGSVERMGSGIERMGPLGLDHMASSIERMGQTMERIGSGVERMGAGMGFGLERMAAPIDRVGQTIERMGSGVERMGPAIERMGLSMERMVPAGMGAGLERMGPVMDRMATGLERMGANNLERMGLERMGANSLERMGLERMGANSLERMGPAMGPALGAGIERMGLAMGGGGGASFDRAIEMERGNFGGSFAGSFGGAGGHAPGVARKACQIFVRNLPFDFTWKMLKDKFNECGHVLYADIKMENGKSKGCGVVKFESPEVAERACRMMNGMKLSGREIDVRIDRNA	binds
